According to PubChem BioAssay AID1671190 (National Center for Advancing Translational Sciences (NCATS), 2021):
The whole screen tested about 580,000 compounds, of which about 6,100 (1.1%) were called active. Inconclusive results, whose numbers are uncertain, are shown with a selection of clear calls. The call rests on the fitted dose curve; in most records, active means well fitted inhibition curve with a large enough effect; inconclusive means small, poorly fitted or top-dose-only effect, or another doubt; inactive means no such curve, though single readings can be large or run the other way. Potencies of inconclusive entries are doubtful fits and often do not repeat.

Protein sequences, listed by entry. Tags and fused reporters are not part of them. Lines headed by an entry give the natural chain unless they say otherwise; changes in a name come on top.
UniProt P18054: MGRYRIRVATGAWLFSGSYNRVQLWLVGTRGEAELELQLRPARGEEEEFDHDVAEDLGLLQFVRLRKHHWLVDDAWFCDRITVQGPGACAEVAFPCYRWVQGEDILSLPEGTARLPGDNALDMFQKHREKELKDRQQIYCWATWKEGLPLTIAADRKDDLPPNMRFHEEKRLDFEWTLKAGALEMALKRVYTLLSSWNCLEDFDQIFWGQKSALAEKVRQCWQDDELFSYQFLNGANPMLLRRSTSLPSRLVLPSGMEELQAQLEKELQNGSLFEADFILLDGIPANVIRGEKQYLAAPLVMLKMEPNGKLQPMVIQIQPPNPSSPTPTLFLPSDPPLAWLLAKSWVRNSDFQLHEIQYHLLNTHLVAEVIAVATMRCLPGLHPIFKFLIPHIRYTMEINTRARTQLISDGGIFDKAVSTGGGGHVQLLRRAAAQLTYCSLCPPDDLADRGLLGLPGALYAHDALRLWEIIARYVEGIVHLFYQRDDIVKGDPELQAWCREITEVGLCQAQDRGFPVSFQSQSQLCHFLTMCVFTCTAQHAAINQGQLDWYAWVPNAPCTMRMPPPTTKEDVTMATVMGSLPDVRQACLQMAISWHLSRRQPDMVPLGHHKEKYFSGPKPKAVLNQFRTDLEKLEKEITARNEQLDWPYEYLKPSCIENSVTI

Target: Polyunsaturated fatty acid lipoxygenase ALOX12 (Homo sapiens) (UniProt P18054)
Assay: Primary qHTS assay for inhibitors of human arachidonate 12S-lipoxygenase (ALOX12): Round 2
Conditions: purified 12hLO, xylenol orange hydroperoxide absorbance; activity change, negative = inhibition: at 108 µM (top of the series) unless noted
Method in brief: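 Purified human 12hLO (150 nM final) in 25 mM Hepes, 0.01% Triton X-100, pH 7.0 was preincubated 15 min at room temperature with compound. Then 40 uM arachidonic acid was added, 30 min. Hydroperoxide was read by Fe-XO absorbance ratio 573/405 nm.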
On the % scale 0 is the no-effect control and ±100 the full control effect; potency means the concentration at half of the fitted maximal effect.

SMILES	Potency	activity change, negative = inhibition
COC(=O)c1sccc1NC(=O)CSc1cccc(Cl)c1Cl	inconclusive: 0.251 µM [inhibitor, full curve, poor fit]	–
COC(=O)c1ccc(NC(=O)CSc2ccc(-c3ccccn3)nn2)cc1	–	inactive: 5.31%
C[C@@H](NC(=O)C1=C[C@@H](NC(=O)CC(C)(C)C)[C@@H](O)[C@H](O)C1)C(N)=O	–	inactive: 1.11% [at 176 µM]
CCOC(=O)C1CCN(C(=O)c2cccc(S(=O)(=O)N(C)C3CCCCC3)c2)CC1	inconclusive: 56.2 µM [inhibitor, partial curve, poor fit]	–
CC[C@@H](C)[C@@H]1CN([C@@H](CN2CCC[C@H]2CN2C(N)=NC[C@H]2CC(C)C)C(C)C)C(=N)N1CCCC1CCCC1	inconclusive: 14.1 µM [inhibitor, partial curve, poor fit]	–
O=C(CSc1nccn1-c1cccc(C(F)(F)F)c1)Nc1ccc2c(c1)OCO2	–	inactive: 6.19%
CCSc1nccc(-c2nn(-c3ccc(C)cc3)ccc2=O)n1	–	inactive: 0%
Cc1ccc2nc(C)c3c(c2c1)N(c1ccccc1)CC3	inconclusive: 100 µM [inhibitor, single point]	–
CC(C)(CO)NC/C=C/c1ccccc1	inconclusive: 0.447 µM [inhibitor, full curve, poor fit]	–
O=C(CNc1cccc(S(=O)(=O)N2CCCCC2)c1)Nc1ccc(N2CCCC2)cc1	inconclusive: 50.1 µM [inhibitor, partial curve, poor fit]	–
CCCCn1c(N)c(N(CC)C(=O)Cn2c(CC)nc3ccccc32)c(=O)[nH]c1=O	active: 25.1 µM	–
COc1ccc(-c2cc(C(=O)N/N=C/c3cccnc3)c3ccccc3n2)cc1	–	inactive: 0%
Cc1ccc(C(=O)NCCn2nc(-c3ccc(Cl)cc3)ccc2=O)cc1C	–	inactive: 14.8%
Clc1ccccc1CN1CCc2nc(N3CCN(c4ncccn4)CC3)ncc2C1	inconclusive: 44.7 µM [inhibitor, partial curve, poor fit]	–
Cc1ccc(C(=O)NC(=S)N2CCN(C)CC2)cc1Br	inconclusive: 25.1 µM [inhibitor, partial curve, poor fit]	–
COc1ccc(CNC(=O)C2CCCN(S(=O)(=O)N3CC(C)CC(C)C3)C2)c(OC)c1 (stereo not drawn)	–	inactive: -0.198%
O=S(=O)(NCc1ccccc1Cn1cccn1)N1CCCCC1	–	inactive: 136%
Cc1cccc(C(=O)Nc2ccc(CCC(=O)N(C)C)cc2)c1	–	inactive: 6.72%
CCOC(=O)c1sc2cccc(F)c2c1COC(=O)c1ccoc1C	inconclusive: 39.8 µM [inhibitor, partial curve, poor fit]	–
COCCNC(=O)N1CCN(c2oc(-c3ccco3)nc2C#N)CC1	–	inactive: -17.2%
CCc1noc(-c2cn(C3CCN(C(=O)c4ccc(C)cc4C)C3)nn2)n1 (stereo not drawn)	inconclusive: 50.1 µM [inhibitor, partial curve]	–
CC(OC(=O)c1ccccc1C(=O)N(C)c1ccccc1)C(=O)Nc1ccc(C(N)=O)cc1 (stereo not drawn)	inconclusive: 89.1 µM [inhibitor, single point]	–
CCCOc1ccc(NCC(=O)Nc2ccc(C)cc2C)cc1	inconclusive: 7.08 µM [inhibitor, full curve, poor fit]	–

SMILES	Potency	activity change, negative = inhibition
CC1CN=C(c2cc(Cl)c(N)c(Cl)c2)c2c3ccc(C(F)(F)F)cc3nn21 (stereo not drawn)	inconclusive: 89.1 µM [inhibitor, partial curve, poor fit]	–
CC(=O)NCCCC(=O)N1CCOC2(CCN(C(=O)NC(C)C)CC2)C1	–	inactive: 3.96% [at 6.33 µM]
Cc1ccc(/C=N/n2c(-c3cccnc3)n[nH]c2=S)s1	inconclusive: 50.1 µM [inhibitor, partial curve, poor fit]	–
Cc1ccccc1S(=O)(=O)Cc1ccc(C(=O)NC2CCCCC2C)o1 (stereo not drawn)	–	inactive: -18%
O=C(NCCc1ccc(Cl)cc1)c1nc(-c2ccc(Cl)cc2)c2ccccn12	–	inactive: 16.3%
CCc1ccc(Nc2n[n+](-c3ccccc3)c(-c3ccc(OC)c(Br)c3)s2)cc1	inconclusive: 20 µM [inhibitor, partial curve, poor fit]	–
O=C(/C=C/c1ccc(-c2ccc(Cl)cc2Cl)o1)c1ccc(F)cc1	inconclusive: 20 µM [inhibitor, full curve, poor fit]	–
O=C(O)CSC(NC(=O)c1cccnc1)(C(F)(F)F)C(F)(F)F	inconclusive: 2 µM [inhibitor, full curve, poor fit]	–
Cc1cccc(NC(=O)C2(c3cccc(Br)c3)CC2)n1	–	inactive: 6.26%
Cc1c(NC(=O)CN2CCCC(C)C2)ccc2nsnc12 (stereo not drawn)	inconclusive: 100 µM [inhibitor, single point]	–
CC1CN(c2oc(-c3ccco3)nc2S(=O)(=O)c2ccccc2)CC(C)O1 (stereo not drawn)	inconclusive: 28.2 µM [inhibitor, single point]	–
CCOCCCNC(=O)c1ccc2c(=O)n(CCc3ccc(OC)c(OC)c3)c(=O)[nH]c2c1	–	inactive: 3.08%
CS(=O)(=O)NCC1CCCN(C(=O)c2cnc3ccccc3n2)C1 (stereo not drawn)	–	inactive: 16%
Cc1cc2c(cc1C)NC(CC(=O)Nc1ccccc1C(F)(F)F)C(=O)N2 (stereo not drawn)	inconclusive: 12.6 µM [inhibitor, full curve]	–
O=C(Nc1nc(N2C(=O)c3ccccc3C2=O)n(-c2ccccc2)n1)c1ccc(Cl)cc1	–	inactive: 0%
Cc1ccc2nc(N(CCCN(C)C)C(=O)CS(=O)(=O)c3ccccc3)sc2c1	inconclusive: 7.08 µM [inhibitor, full curve, poor fit]	–
CN(CCCNC(=O)CCc1cn(C)c2ccccc12)C1CCCCC1	–	inactive: -2.2%
O=C(CSc1nnnn1C1CCCCC1)NC(c1ccccc1)c1cccs1 (stereo not drawn)	–	inactive: -3.08%
CCOc1nc(-c2ccccc2)c2cc(Br)ccc2n1	inconclusive: 44.7 µM [inhibitor, partial curve, poor fit]	–
Cc1cc(C)n(C2CCN(c3nccc(-c4ccccn4)n3)C2)n1 (stereo not drawn)	–	inactive: 130%
O=C(/C=C/c1cccs1)N(Cc1ccco1)C1CC1	–	inactive: -51.6%
C[C@@H](NC(=O)OC(C)(C)C)C(=O)NCC1CCC(C(=O)N[C@@H](Cc2ccccc2)C(=O)O)CC1 (stereo partly drawn)	inconclusive: 28.2 µM [inhibitor, single point]	–
O=C1CC2(CCN(CC3CC3)CC2)Oc2ccccc2N1	–	inactive: 3.03% [at 176 µM]

SMILES	Potency	activity change, negative = inhibition
COc1cccc(Oc2cn[nH]c2-c2ccc(OC)cc2O)c1	inconclusive: 28.2 µM [inhibitor, partial curve, poor fit]	–
O=C(O)c1ccccc1SC1CC(=O)N(c2cccc3ccccc23)C1=O (stereo not drawn)	–	inactive: -15.7%
CCC(O)C1CCN(Cc2cn(-c3ccc(OC)cc3)nc2-c2cccc(F)c2)CC1 (stereo not drawn)	inconclusive: 79.4 µM [inhibitor, partial curve, poor fit]	–
COc1ccc([C@H]2CC(=O)C=C(c3cc(F)ccc3OC)C2)cc1	inconclusive: 39.8 µM [inhibitor, partial curve, poor fit]	–
Cc1ccc(OC(C)C(=O)NCCc2c[nH]c3ccccc23)cc1 (stereo not drawn)	inconclusive: 126 µM [inhibitor, partial curve, poor fit]	–
CNC(C)C(=O)NC(C(=O)NC(C(=O)Nc1cccc2ccccc12)C(C)C)C(C)C (stereo not drawn)	inconclusive: 112 µM [inhibitor, single point]	–
Cc1cccc(CC2CC(=O)N(c3ccc([N+](=O)[O-])cc3)C2=O)c1 (stereo not drawn)	inconclusive: 1.12 µM [inhibitor, full curve, poor fit]	–
CC1C2CC(CC2C2CCCC(O)C2)C1(C)C (stereo not drawn)	–	inactive: 5.32%
CCN1C(=O)[C@H]2[C@@H](c3ccc(-c4ccccc4)cc3)N[C@@](CC(C)C)(C(=O)OC)[C@H]2C1=O	inconclusive: 28.2 µM [inhibitor, partial curve, poor fit]	–
CCOC(=O)c1ccccc1NC(=O)Cn1nc2n(c1=O)CCCCC2	–	inactive: 7.83%
O=C(C(=Cc1ccc(F)cc1)c1ccccc1)c1ccc(O)cc1	inconclusive: 44.7 µM [inhibitor, partial curve, poor fit]	–
Cc1ccc(-c2cc(-c3ccccc3[N+](=O)[O-])[nH]n2)c(O)c1	inconclusive: 56.2 µM [inhibitor, partial curve, poor fit]	–
COc1ccc(CN2Cc3[nH]nc(-c4cccc(C(F)(F)F)c4)c3CC2=O)cc1	inconclusive: 25.1 µM [inhibitor, full curve, poor fit]	–
COc1ccccc1C(=O)N1CCC(c2nc3ccccc3o2)CC1	–	inactive: 11.1%
Cc1ccc(-c2csc(Nc3cc(C)ccc3C)n2)cc1	inconclusive: 56.2 µM [inhibitor, partial curve, poor fit]	–
CCOc1ccc2c(c1)[N+](C)(C)C(C)(C)C=C2C	inconclusive: 50.1 µM [inhibitor, partial curve, poor fit]	–
O=C(O)C(c1c[nH]c2ccc(Cl)cc12)N1CCN(Cc2ccncc2)CC1 (stereo not drawn)	inconclusive: 79.4 µM [inhibitor, single point]	–
CCOc1cc(CNCCSc2nnnn2C)cc(Br)c1OCc1ccccc1F	inconclusive: 70.8 µM [inhibitor, partial curve, poor fit]	–
O=C(Nc1ccc(-c2n[nH]c(=S)o2)cc1)c1ccccc1Br	inconclusive: 39.8 µM [inhibitor, partial curve, poor fit]	–
CS(=O)(=O)NC[C@H]1O[C@@H](CO)[C@@H](O)C1N1CCN(c2ccccc2)CC1 (stereo partly drawn)	inconclusive: 4.47 µM [inhibitor, full curve]	–
O=C1CCCCN1CC(=O)N1CCCC(Nc2ccc(F)cc2)C1 (stereo not drawn)	inconclusive: 63.1 µM [inhibitor, partial curve, poor fit]	–
CCC(=O)N1CCN(c2ccccc2NC(=S)NC(=O)c2ccco2)CC1	inconclusive: 44.7 µM [inhibitor, partial curve, poor fit]	–

Looked up by structure from the list above (four):
SMILES	Potency	activity change, negative = inhibition
CNC(C)C(=O)NC(C(=O)NC(C(=O)Nc1cccc2ccccc12)C(C)C)C(C)C (stereo not drawn)	inconclusive: 112 µM [inhibitor, single point]	–
CCC(=O)N1CCN(c2ccccc2NC(=S)NC(=O)c2ccco2)CC1	inconclusive: 44.7 µM [inhibitor, partial curve, poor fit]	–
Cc1cc2c(cc1C)NC(CC(=O)Nc1ccccc1C(F)(F)F)C(=O)N2 (stereo not drawn)	inconclusive: 12.6 µM [inhibitor, full curve]	–
CCc1noc(-c2cn(C3CCN(C(=O)c4ccc(C)cc4C)C3)nn2)n1 (stereo not drawn)	inconclusive: 50.1 µM [inhibitor, partial curve]	–
